Assay results from the supplement of paper PMC6411743.
± gives the standard deviation of the averaged measurements. This is a selection; strong and weak results do not stand in their true shares. Most values lie at the level of the controls, where differences are scatter.

Protein sequences, listed by entry. Tags and fused reporters are not part of them. Lines headed by an entry give the natural chain unless they say otherwise; changes in a name come on top.
UniProt Q9UII2: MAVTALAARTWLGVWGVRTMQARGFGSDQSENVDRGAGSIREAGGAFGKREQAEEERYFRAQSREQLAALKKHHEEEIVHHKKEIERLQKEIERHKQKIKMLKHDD
UniProt Q9Y2L1: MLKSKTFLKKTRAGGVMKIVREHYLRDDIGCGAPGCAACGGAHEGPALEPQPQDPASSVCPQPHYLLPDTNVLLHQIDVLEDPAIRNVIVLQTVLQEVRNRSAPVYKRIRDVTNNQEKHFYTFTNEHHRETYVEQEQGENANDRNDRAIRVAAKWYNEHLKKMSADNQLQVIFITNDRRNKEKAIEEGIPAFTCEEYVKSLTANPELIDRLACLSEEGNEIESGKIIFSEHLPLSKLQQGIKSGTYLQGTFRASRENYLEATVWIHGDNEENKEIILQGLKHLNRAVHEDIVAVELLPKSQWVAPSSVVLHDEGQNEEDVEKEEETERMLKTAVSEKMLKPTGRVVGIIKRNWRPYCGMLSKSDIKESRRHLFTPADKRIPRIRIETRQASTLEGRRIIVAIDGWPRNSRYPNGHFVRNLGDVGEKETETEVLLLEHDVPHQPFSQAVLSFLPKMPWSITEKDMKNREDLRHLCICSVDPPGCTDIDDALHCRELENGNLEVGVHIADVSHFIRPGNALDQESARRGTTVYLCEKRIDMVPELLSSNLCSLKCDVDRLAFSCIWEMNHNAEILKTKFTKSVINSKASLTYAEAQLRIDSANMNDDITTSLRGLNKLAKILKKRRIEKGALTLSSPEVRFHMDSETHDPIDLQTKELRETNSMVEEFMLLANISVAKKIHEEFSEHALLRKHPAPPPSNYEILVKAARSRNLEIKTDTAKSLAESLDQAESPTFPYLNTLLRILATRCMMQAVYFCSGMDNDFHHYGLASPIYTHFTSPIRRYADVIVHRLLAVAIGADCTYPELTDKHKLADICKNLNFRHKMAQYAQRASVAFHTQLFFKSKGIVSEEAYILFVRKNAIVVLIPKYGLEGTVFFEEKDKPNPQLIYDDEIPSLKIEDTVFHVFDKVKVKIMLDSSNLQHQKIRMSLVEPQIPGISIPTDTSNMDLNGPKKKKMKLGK
UniProt Q9UQ13: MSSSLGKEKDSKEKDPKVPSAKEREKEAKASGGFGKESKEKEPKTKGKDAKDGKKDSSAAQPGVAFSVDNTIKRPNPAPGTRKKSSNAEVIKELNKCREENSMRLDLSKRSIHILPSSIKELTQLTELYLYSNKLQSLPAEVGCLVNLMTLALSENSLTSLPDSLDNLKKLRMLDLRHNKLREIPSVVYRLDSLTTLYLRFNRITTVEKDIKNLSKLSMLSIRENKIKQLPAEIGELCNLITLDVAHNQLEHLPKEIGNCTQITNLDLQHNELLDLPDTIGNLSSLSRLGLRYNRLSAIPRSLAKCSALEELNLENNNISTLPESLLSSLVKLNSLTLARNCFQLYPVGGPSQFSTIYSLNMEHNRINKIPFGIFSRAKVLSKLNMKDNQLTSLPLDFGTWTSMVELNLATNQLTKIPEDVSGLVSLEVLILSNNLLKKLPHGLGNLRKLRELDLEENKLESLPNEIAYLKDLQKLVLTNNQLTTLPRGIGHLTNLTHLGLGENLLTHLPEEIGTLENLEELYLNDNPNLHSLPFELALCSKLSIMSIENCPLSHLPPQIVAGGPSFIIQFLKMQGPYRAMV
UniProt Q9UIJ7: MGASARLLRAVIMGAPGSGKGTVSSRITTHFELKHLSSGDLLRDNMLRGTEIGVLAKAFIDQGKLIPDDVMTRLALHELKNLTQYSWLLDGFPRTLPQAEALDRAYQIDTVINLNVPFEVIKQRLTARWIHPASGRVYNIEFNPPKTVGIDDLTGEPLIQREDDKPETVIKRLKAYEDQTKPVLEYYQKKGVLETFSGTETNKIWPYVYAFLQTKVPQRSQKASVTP
UniProt Q9Y248: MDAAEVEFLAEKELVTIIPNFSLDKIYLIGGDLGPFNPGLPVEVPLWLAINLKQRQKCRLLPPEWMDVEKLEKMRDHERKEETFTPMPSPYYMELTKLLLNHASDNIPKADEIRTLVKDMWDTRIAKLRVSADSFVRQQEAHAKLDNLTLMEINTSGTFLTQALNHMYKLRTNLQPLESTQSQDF
UniProt Q9UGU0: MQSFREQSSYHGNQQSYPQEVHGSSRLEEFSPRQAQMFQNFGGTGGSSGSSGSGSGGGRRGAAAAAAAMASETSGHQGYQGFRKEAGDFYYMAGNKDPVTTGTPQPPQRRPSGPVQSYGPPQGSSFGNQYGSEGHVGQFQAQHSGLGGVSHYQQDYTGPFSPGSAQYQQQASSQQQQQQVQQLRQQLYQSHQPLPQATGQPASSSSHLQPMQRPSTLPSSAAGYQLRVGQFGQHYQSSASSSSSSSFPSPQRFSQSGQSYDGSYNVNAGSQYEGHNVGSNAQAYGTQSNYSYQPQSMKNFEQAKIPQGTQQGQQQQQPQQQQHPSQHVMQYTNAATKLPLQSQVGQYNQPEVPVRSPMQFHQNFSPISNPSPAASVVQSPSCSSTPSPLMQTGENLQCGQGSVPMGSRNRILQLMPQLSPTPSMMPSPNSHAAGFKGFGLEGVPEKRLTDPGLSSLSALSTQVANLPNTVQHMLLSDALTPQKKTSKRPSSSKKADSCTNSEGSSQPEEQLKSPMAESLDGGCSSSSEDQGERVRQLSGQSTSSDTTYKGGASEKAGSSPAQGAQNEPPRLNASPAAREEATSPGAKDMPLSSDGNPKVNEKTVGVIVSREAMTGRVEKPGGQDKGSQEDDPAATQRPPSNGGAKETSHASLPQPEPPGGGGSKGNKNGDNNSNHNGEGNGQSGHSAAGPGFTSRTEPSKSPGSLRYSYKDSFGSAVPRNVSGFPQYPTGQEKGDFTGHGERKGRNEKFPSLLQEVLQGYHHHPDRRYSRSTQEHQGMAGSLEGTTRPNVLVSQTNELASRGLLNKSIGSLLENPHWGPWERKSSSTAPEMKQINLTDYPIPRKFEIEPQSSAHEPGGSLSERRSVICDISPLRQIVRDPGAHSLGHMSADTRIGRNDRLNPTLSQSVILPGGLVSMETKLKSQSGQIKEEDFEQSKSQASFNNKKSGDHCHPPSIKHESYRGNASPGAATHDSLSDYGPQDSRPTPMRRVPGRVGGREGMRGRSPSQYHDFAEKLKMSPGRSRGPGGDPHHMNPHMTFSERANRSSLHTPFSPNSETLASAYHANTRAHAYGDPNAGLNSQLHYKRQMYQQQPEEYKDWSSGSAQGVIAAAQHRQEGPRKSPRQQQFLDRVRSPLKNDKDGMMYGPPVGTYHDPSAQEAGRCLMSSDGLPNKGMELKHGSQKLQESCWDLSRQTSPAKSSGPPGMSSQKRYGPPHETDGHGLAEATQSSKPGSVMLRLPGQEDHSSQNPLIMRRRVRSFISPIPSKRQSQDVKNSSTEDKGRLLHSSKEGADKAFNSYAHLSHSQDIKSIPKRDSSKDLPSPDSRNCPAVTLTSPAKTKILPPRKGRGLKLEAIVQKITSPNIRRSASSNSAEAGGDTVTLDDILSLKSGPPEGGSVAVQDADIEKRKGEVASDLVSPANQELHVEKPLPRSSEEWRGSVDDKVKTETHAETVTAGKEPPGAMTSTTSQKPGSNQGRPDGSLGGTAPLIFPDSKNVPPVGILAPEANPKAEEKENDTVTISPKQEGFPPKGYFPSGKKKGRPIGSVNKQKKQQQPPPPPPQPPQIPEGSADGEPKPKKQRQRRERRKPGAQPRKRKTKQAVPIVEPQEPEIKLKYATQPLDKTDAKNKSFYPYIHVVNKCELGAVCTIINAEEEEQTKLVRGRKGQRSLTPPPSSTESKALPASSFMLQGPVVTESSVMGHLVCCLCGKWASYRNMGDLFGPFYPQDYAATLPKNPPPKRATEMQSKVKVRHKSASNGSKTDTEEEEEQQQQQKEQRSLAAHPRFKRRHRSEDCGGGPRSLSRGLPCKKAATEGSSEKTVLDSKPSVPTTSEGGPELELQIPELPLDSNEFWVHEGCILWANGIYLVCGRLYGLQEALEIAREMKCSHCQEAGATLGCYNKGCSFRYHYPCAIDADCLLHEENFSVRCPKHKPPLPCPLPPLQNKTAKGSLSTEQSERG
UniProt Q9UNS1: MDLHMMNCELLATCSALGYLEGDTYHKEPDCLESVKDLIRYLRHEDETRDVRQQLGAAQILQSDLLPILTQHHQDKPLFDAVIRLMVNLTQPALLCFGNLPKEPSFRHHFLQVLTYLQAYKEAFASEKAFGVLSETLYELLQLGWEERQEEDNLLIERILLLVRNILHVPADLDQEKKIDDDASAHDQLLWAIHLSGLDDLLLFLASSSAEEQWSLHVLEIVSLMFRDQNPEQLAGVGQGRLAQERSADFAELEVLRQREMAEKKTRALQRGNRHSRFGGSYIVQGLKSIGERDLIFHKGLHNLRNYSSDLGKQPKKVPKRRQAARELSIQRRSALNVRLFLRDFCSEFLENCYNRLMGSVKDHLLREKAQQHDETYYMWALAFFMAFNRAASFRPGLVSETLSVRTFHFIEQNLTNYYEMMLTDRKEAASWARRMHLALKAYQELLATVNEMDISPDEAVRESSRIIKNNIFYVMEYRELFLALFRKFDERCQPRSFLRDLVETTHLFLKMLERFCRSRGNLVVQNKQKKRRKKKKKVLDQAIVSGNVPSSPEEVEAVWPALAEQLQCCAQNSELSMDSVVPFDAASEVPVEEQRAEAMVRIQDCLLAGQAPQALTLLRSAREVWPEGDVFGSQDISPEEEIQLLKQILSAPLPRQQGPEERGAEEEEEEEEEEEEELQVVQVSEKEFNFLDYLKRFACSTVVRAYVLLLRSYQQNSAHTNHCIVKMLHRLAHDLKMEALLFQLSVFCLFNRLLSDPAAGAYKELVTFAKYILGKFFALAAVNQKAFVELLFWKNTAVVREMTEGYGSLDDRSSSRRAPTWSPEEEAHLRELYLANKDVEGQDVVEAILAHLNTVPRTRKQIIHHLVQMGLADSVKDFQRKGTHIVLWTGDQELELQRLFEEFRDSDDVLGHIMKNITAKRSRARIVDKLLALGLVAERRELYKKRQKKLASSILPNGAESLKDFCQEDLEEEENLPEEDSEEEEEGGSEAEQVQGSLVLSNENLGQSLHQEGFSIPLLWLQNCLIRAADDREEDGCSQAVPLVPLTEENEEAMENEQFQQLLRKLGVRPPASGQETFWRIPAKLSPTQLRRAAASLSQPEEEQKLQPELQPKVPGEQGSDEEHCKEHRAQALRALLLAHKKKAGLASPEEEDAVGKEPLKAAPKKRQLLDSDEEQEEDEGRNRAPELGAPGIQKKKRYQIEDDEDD
UniProt Q9Y281, whole entry: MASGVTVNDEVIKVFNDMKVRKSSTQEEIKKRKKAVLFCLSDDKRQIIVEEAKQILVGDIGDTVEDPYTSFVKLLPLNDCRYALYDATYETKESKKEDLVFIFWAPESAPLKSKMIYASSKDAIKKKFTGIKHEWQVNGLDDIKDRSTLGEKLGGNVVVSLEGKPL
UniProt Q9ULD0: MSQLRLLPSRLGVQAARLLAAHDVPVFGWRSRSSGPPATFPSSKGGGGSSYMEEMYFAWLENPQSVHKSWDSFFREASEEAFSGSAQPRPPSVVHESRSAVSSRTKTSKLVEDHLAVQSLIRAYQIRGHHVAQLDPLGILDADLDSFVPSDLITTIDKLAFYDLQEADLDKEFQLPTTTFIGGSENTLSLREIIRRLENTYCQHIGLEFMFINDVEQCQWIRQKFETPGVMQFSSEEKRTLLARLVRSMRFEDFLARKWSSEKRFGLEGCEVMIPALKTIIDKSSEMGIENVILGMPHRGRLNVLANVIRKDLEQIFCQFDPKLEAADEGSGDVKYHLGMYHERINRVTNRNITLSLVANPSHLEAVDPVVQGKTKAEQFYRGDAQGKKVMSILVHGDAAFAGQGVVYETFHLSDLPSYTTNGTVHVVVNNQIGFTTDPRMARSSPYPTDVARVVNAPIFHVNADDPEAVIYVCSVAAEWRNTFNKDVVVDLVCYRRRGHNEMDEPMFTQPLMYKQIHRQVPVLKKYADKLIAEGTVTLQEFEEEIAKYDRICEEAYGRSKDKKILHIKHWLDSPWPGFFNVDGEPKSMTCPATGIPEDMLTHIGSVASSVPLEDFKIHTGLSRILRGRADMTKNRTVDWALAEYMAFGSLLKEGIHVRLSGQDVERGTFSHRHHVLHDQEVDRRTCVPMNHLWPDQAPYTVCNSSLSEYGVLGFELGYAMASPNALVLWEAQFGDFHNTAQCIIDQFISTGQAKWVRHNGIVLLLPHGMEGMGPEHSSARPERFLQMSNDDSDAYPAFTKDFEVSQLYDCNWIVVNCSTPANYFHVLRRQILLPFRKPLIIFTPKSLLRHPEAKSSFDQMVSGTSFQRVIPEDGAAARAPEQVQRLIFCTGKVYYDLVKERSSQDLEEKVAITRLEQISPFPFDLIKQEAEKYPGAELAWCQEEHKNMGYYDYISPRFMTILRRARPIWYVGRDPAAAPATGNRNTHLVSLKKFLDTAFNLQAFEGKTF
UniProt Q9UK76: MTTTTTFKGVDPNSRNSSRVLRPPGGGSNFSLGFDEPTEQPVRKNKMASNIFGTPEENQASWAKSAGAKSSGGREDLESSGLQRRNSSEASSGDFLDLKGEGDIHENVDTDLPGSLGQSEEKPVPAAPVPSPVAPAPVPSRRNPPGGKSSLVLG

Compound: Nc1ncnc2c1ncn2[C@@H]1O[C@H](COP(=O)(O)OP(=O)(O)NP(=O)(O)O)[C@@H](O)[C@H]1O [adenylyl imidodiphosphate]
Assay: NP40-soluble protein abundance relative to vehicle (solubility fold change) (ratio); higher = more soluble protein in presence of AMP-PNP
How it was run: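 Jurkat crude lysate prepared with a Dounce homogeniser was treated at eight concentrations spanning 0.1 to 10 mM, 10 min at room temperature then 3 min at 37 °C. Solubilisation with 0.8% NP40 and benzonase and ultracentrifugation preceded TMT labelling of the supernatant for LC-MS/MS. Fold change against the detergent-processed vehicle was determined per replicate from vsn-normalised intensities, across three independent experiments.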

Target	NP40-soluble protein abundance (concentration: 0.1mM)	NP40-soluble protein abundance (concentration: 0.5mM)
ZNF148 (UniProt Q9UQR1)	0.977 ± 0.014	0.992 ± 0.029
ASF1A (UniProt Q9Y294)	0.978 ± 0.046	0.963 ± 0.14
TTF2 (UniProt Q9UNY4)	1.01 ± 0.019	0.999 ± 0.029
CGGBP1 (UniProt Q9UFW8)	0.9905 ± 0.0032	1.04 ± 0.066
SMC3 (UniProt Q9UQE7)	1 ± 0.028	1.02 ± 0.045
TPX2 (UniProt Q9ULW0)	0.998 ± 0.0042	1.05 ± 0.048
PFDN2 (UniProt Q9UHV9)	1.01 ± 0.036	1.07 ± 0.074
UniProt Q9UJX5 and related entries	0.987 ± 0.029	0.993 ± 0.019
MRPS23 (UniProt Q9Y3D9)	1.03 ± 0.022	1.02 ± 0.027
ZMYM2 (UniProt Q9UBW7)	0.985 ± 0.025	0.962 ± 0.016
UniProt Q9UII2	0.992 ± 0.053	1.09 ± 0.12
POLR3K (UniProt Q9Y2Y1)	0.994 ± 0.021	0.9949 ± 0.0051
UniProt Q9UHL0 and related entries	1.16 ± 0.015	0.949 ± 0.08
MED13 (UniProt Q9UHV7)	1.01 ± 0.034	1.03 ± 0.056
UniProt Q9Y316 and related entries	1.04 ± 0.074	0.985 ± 0.099
NENF (UniProt Q9UMX5)	0.927 ± 0.017	0.97 ± 0.074
MAPRE3 (UniProt Q9UPY8)	0.994 ± 0.041	0.994 ± 0.066
UniProt Q9ULC4 and related entries	1.01 ± 0.019	0.998 ± 0.032
UniProt Q9UPP1 and related entries	1 ± 0.022	0.984 ± 0.053
DIS3 (UniProt Q9Y2L1)	1 ± 0.033	0.961 ± 0.068
PCYOX1 (UniProt Q9UHG3)	1.02 ± 0.031	1 ± 0.027
NIPSNAP3A (UniProt Q9UFN0)	1.02 ± 0.034	1 ± 0.07
UniProt Q9Y2Z2 and related entries	0.9764 ± 0.0053	0.9619 ± 0.006
UniProt Q9UQ13 and related entries	1.03 ± 0.026	1.01 ± 0.018

Target	NP40-soluble protein abundance (concentration: 0.1mM)	NP40-soluble protein abundance (concentration: 0.5mM)
UniProt Q9UKX7 and related entries	1 ± 0.012	1.04 ± 0.017
AK3 (UniProt Q9UIJ7)	0.95 ± 0.048	0.952 ± 0.074
FARSA (UniProt Q9Y285)	1.03 ± 0.025	1.02 ± 0.055
UniProt Q9ULJ7 and related entries	0.996 ± 0.075	0.951 ± 0.098
UniProt Q9Y333	0.97 ± 0.11	0.999 ± 0.1
UniProt Q9UJU6 and related entries	1.08 ± 0.066	1 ± 0.014
UniProt Q9UL63 and related entries	1 ± 0.066	0.987 ± 0.065
UniProt Q9UER7 and related entries	1.02 ± 0.048	1.01 ± 0.05
TUBE1 (UniProt Q9UJT0)	0.999 ± 0.026	0.994 ± 0.026
GINS2 (UniProt Q9Y248)	0.9988 ± 0.0055	1.02 ± 0.014
UniProt Q9UNL4 and related entries	1.01 ± 0.078	1.02 ± 0.032
UniProt Q9UPN6 and related entries	0.995 ± 0.016	0.992 ± 0.032
UniProt Q9UP95 and related entries	0.99 ± 0.011	0.983 ± 0.019
UniProt Q9Y282 and related entries	1 ± 0.025	1.02 ± 0.021
UniProt Q9UGU0 and related entries	0.984 ± 0.043	0.998 ± 0.048
GIT1 (UniProt Q9Y2X7)	1 ± 0.027	1.02 ± 0.059
VTI1B (UniProt Q9UEU0)	1 ± 0.029	0.997 ± 0.033
UniProt Q9ULT8 and related entries	1.03 ± 0.014	0.972 ± 0.026
VPS28 (UniProt Q9UK41)	0.988 ± 0.065	1 ± 0.059
UniProt Q9UJZ1 and related entries	0.975 ± 0.017	1.04 ± 0.053
UniProt Q9Y2H1	1.01 ± 0.014	1.03 ± 0.054
UniProt Q9UEW8 and related entries	1.06 ± 0.025	1.06 ± 0.074
THRAP3 (UniProt Q9Y2W1)	1.01 ± 0.022	1.08 ± 0.032
ZNHIT2 (UniProt Q9UHR6)	0.991 ± 0.027	0.9994 ± 0.005

Target	NP40-soluble protein abundance (concentration: 0.1mM)	NP40-soluble protein abundance (concentration: 0.5mM)
UniProt Q9UNA1 and related entries	0.9857 ± 0.0029	0.9962 ± 0.0088
TMED5 (UniProt Q9Y3A6)	0.985 ± 0.018	0.965 ± 0.02
AP4E1 (UniProt Q9UPM8)	1.01 ± 0.043	0.994 ± 0.023
APPL1 (UniProt Q9UKG1)	1.02 ± 0.028	1.01 ± 0.035
POLG2 (UniProt Q9UHN1)	1.08 ± 0.083	1.05 ± 0.064
KMT2B (UniProt Q9UMN6)	1.01 ± 0.014	0.9953 ± 0.0028
UniProt Q9ULX6 and related entries	0.994 ± 0.04	0.971 ± 0.047
UniProt Q9UBS8 and related entries	0.981 ± 0.018	0.993 ± 0.023
GSTK1 (UniProt Q9Y2Q3)	1.04 ± 0.02	1.03 ± 0.04
CPSF3 (UniProt Q9UKF6)	1.01 ± 0.014	0.9955 ± 0.0096
UniProt Q9UDY2 and related entries	1.02 ± 0.011	1.01 ± 0.055
AMFR (UniProt Q9UKV5)	1.01 ± 0.044	0.986 ± 0.039
GPATCH8 (UniProt Q9UKJ3)	1.04 ± 0.038	1.04 ± 0.052
NOL7 (UniProt Q9UMY1)	0.972 ± 0.032	1.02 ± 0.035
UniProt Q9UKI8-5|Q9UKI8	0.959 ± 0.031	0.99 ± 0.03
UniProt Q9UH99 and related entries	1 ± 0.022	1.04 ± 0.042
RCL1 (UniProt Q9Y2P8)	1.04 ± 0.026	0.988 ± 0.11
STUB1 (UniProt Q9UNE7)	0.991 ± 0.026	1.02 ± 0.021
UniProt Q9UNS1 and related entries	0.971 ± 0.037	0.96 ± 0.038
CFL2 (UniProt Q9Y281)	1.01 ± 0.053	1.02 ± 0.051
UniProt Q9UNM6 and related entries	1.005 ± 0.0047	0.949 ± 0.078
SNX6 (UniProt Q9UNH7)	0.976 ± 0.019	1.02 ± 0.056
NDUFA12 (UniProt Q9UI09)	1 ± 0.04	1.04 ± 0.029
TRMT6 (UniProt Q9UJA5)	1.02 ± 0.018	0.989 ± 0.0043

Record cards (already shown).
RCL1 (UniProt Q9Y2P8) is listed as NP40-soluble protein abundance (concentration: 0.1mM): 1.04 ± 0.026; NP40-soluble protein abundance (concentration: 0.5mM): 0.988 ± 0.11
TRMT6 (UniProt Q9UJA5) is listed as NP40-soluble protein abundance (concentration: 0.1mM): 1.02 ± 0.018; NP40-soluble protein abundance (concentration: 0.5mM): 0.989 ± 0.0043
KMT2B (UniProt Q9UMN6) is listed as NP40-soluble protein abundance (concentration: 0.1mM): 1.01 ± 0.014; NP40-soluble protein abundance (concentration: 0.5mM): 0.9953 ± 0.0028

The list continues.

Target	NP40-soluble protein abundance (concentration: 0.1mM)	NP40-soluble protein abundance (concentration: 0.5mM)
DPP7 (UniProt Q9UHL4)	0.994 ± 0.022	0.99 ± 0.041
UniProt Q9Y2S2 and related entries	1.02 ± 0.052	1 ± 0.11
UniProt Q9Y3D0	0.99 ± 0.047	1 ± 0.048
DDX52 (UniProt Q9Y2R4)	1.05 ± 0.069	1.04 ± 0.046
NOP58 (UniProt Q9Y2X3)	1.026 ± 0.0046	1.1 ± 0.064
RAB21 (UniProt Q9UL25)	1.01 ± 0.026	1.01 ± 0.044
ENOPH1 (UniProt Q9UHY7)	1.02 ± 0.019	1.02 ± 0.032
CFDP1 (UniProt Q9UEE9)	0.977 ± 0.037	1.03 ± 0.1
UniProt Q9Y222 and related entries	0.976 ± 0.011	0.99 ± 0.031
UniProt Q9UHC7 and related entries	1.02 ± 0.038	1.04 ± 0.033
SPG7 (UniProt Q9UQ90)	0.962 ± 0.0085	0.94 ± 0.027
POLK (UniProt Q9UBT6)	1 ± 0.0084	0.999 ± 0.03
UniProt Q9UKV8	0.987 ± 0.015	0.98 ± 0.021
UniProt Q9ULD0	1.01 ± 0.018	0.998 ± 0.018
MRTO4 (UniProt Q9UKD2)	1.04 ± 0.043	1.07 ± 0.01
UniProt Q9UPT9 and related entries	1 ± 0.059	0.968 ± 0.047
LSM7 (UniProt Q9UK45)	1.02 ± 0.089	1.06 ± 0.14
UniProt Q9UL15 and related entries	1.018 ± 0.007	1 ± 0.015
NSFL1C (UniProt Q9UNZ2)	0.972 ± 0.04	0.958 ± 0.033
CNOT7 (UniProt Q9UIV1)	1.01 ± 0.045	0.974 ± 0.017
UniProt Q9UIG0 and related entries	1.03 ± 0.039	1.02 ± 0.012
PRPF19 (UniProt Q9UMS4)	1.04 ± 0.022	1.04 ± 0.033
EPDR1 (UniProt Q9UM22)	1.03 ± 0.044	1.07 ± 0.08
UniProt Q9ULK4 and related entries	1.02 ± 0.044	1 ± 0.063

Target	NP40-soluble protein abundance (concentration: 0.1mM)	NP40-soluble protein abundance (concentration: 0.5mM)
UniProt Q9Y2Q5 and related entries	1.05 ± 0.025	0.993 ± 0.057
MRPL11 (UniProt Q9Y3B7)	1.02 ± 0.023	1.02 ± 0.048
UniProt Q9UEE5	1.05 ± 0.058	1.04 ± 0.046
UniProt Q9ULV4 and related entries	1.02 ± 0.063	1.06 ± 0.056
UniProt Q9UKM9 and related entries	1.01 ± 0.053	1.03 ± 0.051
PACSIN3 (UniProt Q9UKS6)	1 ± 0.032	1.02 ± 0.071
AFF4 (UniProt Q9UHB7)	1.02 ± 0.021	1.02 ± 0.049
PARP4 (UniProt Q9UKK3)	0.989 ± 0.0085	0.9913 ± 0.0061
FAM8A1 (UniProt Q9UBU6)	0.956 ± 0.029	0.978 ± 0.026
UniProt Q9UIS9 and related entries	0.9993 ± 0.006	1.02 ± 0.029
UniProt Q9UMS0 and related entries	1.01 ± 0.022	1.05 ± 0.035
UniProt Q9Y3B2 and related entries	0.946 ± 0.018	1.02 ± 0.031
DBR1 (UniProt Q9UK59)	0.975 ± 0.027	0.988 ± 0.023
INPP5F (UniProt Q9Y2H2)	0.993 ± 0.024	0.975 ± 0.013
WBP11 (UniProt Q9Y2W2)	0.989 ± 0.0099	1.03 ± 0.023
MSRB2 (UniProt Q9Y3D2)	0.99 ± 0.034	0.982 ± 0.03
UniProt Q9UK61 and related entries	1.02 ± 0.018	0.998 ± 0.041
UniProt Q9Y2K1 and related entries	0.983 ± 0.056	0.982 ± 0.06
UniProt Q9UL54-2	1.02 ± 0.022	1.02 ± 0.042
UniProt Q9UJY5 and related entries	0.999 ± 0.018	0.998 ± 0.02
UniProt Q9Y3B4	1.06 ± 0.061	0.982 ± 0.053
UniProt Q9UK76	1 ± 0.022	1.03 ± 0.045
GNPTG (UniProt Q9UJJ9)	0.95 ± 0.026	0.989 ± 0.016
NRBP1 (UniProt Q9UHY1)	1.006 ± 0.0095	1.01 ± 0.011
